The numbers were not newly measured in patent US11090267B2, “Rapidly degrading embolic particles with therapeutic agent release” (priority 2014, dated 2021), which cites them from elsewhere.

For this series the following is noted: cited from earlier work.

By aqueous solubility is commonly meant the dissolved amount per volume that the medium holds. Take `CC(=O)O[C@H]1C(=O)[C@@]2(C)[C@H]([C@H](OC(=O)c3ccccc3)[C@]3(O)C[C@H](OC(=O)[C@H](O)[C@@H](NC(=O)c4ccccc4)c4ccccc4)C(C)=C1C3(C)C)[C@]1(OC(C)=O)CO[C@@H]1C[C@@H]2O` [Crystalline dihydrate paclitaxel, paclitaxel]: the aqueous solubility was below 1000 µg/mL.
